In patent US20240409648A1:
These are yes or no findings as the source states them, for the method shown. Some results given as binding are weak or reduced against the parent protein; the word gives no strength. Blank lines part the entries; values can stand above or below the binder they belong to.

Biological target: T1, recombinantly produced human IL-36R (ECD-extracellular domain: amino acids 20-332 of Genbank Accession #NP_003845) (human) (UniProt Q9HB29)
T1 sequence (looked up): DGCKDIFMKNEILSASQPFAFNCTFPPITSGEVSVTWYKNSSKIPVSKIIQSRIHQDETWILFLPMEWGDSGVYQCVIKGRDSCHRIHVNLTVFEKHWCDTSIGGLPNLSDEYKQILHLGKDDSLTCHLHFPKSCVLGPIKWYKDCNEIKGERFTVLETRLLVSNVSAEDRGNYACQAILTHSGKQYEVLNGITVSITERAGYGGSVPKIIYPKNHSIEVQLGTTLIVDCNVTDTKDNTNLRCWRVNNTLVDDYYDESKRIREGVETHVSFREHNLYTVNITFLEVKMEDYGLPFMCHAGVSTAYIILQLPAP
Experiment: BLI (Fortebio Octet) selectivity test; also in 50% human serum

binding: binds
B1: antibody 67E7 (antibody, V domains shown)
VH: EVQLQQSGAEFVRPGASVKFSCTASGFNIKDDYIHWVRQRPEQGLEWVGRIDPANGNTKYAPKFQDKATITADTSSNTAYLQLSSLTSEDTAVYYCAKSFPNNYYSYDDAFAYWGQGTLVTVSA
VL: DIQMTQSPASQSASLGESVTFTCLASQTIGTWLGWYQQKPGKSPQLLIYRSTTLADGVPSRFSGSGSGTKFSFKISSLQAADFASYYCQQLYSAPYTFGGGTKLEIR

binding: binds
B2: antibody 172C8 (antibody, V domains shown)
VH: EVQLQQSGPELVKPGASVKLSCKASGYTFTDNYMNWVRQSHGKSLEWIGRVNPSNGDTKYNQNFKGKATLTVDKSLSTAYMQLNGLTSEDSAVYYCGRTKNFYSSYSYDDAMDYWGQGTSVTVSS
VL: DIQMTQSPASQSASLGESVTFTCLASQTIGTWLAWYQQRPGKSPQLLIYAATSLADGVPSRFSGSGSGTQFSFNIRSLQAEDFASYYCQQVYTTPLTFGGGTKLEIK
